Experimental data published in patent US9463195B2, “Dissolution of amyloid fibrils by flavonoids and other compounds” (The Regents of the University of California, priority 2006, dated 2016).

Target: preformed human β-2 microglobulin fibrils (Homo sapiens, UniProt P61769)
Experiment: Thioflavin T fluorescence high-throughput screen (slope assay score) for disruption of preformed fibrils
Format: biochemical
Description: As used herein, “slope assay score” means the slope of the relative fluorescence of thioflavin T versus time curve for a given compound in a thioflavin T fluorescence assay. A negative slope signifies a decrease in thioflavin T fluorescence over time.
The human β-2 microglobulin fibrils were prepared in vitro at 0.1 mg/mL protein in 25 mM phosphate, pH 2, 0.2 M NaCl without agitation for 1 week at 37° C., in the same manner as Ivanova et al. See Ivanova et al. (Proc Natl Acad Sci U.S.A. 2004 Jul. 20; 101(29):10584-9).
In our experiments, disruption of the fibrillar structure of preformed β-2 microglobulin fibrils was monitored by fluorescence. […] Thioflavin T binds specifically to human β-2 microglobulin fibrils, causing a red shift in the fluorescence excitation spectra of the dye to produce a peak in the fluorescence emission spectrum at 482 nm when the excitation wavelength is set at 444 nm. […]
In the fluorescence assay used here, preformed human β-2 microglobulin fibrils were mixed with a solution of 5 μM ThT in 50 mM glycine, pH 8.6 in a 3:14 ratio (final concentrations: 4.1 μM ThT, 41.2 mM glycine, 0.018 mg/mL β-2 microglobulin, 35 mM NaCl and 4.4 mM phosphate). Fluorescence was measured immediately after mixing (excitation wavelength set at 444 nm, emission wavelengths at 482, 490, and 502 nm) with a Molecular Devices FlexStation II. […]

effective in the fluorescence assay at disrupting β-2 microglobulin fibers: effective
Compound: CN(C)CCOC(c1ccccc1)c1ccccc1.Cn1c(=O)c2[nH]c(Cl)nc2n(C)c1=O [dimenhydrinate]
